Measurements as given in PubChem BioAssay AID1671190 (National Center for Advancing Translational Sciences (NCATS), 2021).
About 6,100 (1.1%) of roughly 580,000 compounds were called active. This list was built around the results that the source calls inconclusive (neither active nor inactive); the mix of calls is not that of the screen. Calls follow the shape of the dose curve; as a rule, active = well fitted inhibition curve with a large enough effect; inconclusive = small, poorly fitted or top-dose-only effect, or another doubt; inactive = no such curve, though single readings can be large or run the other way. A potency beside an inconclusive call is a rough fit, not a confirmed value.

Chains of the proteins cited; added tags and fusions are not shown. Lines headed by an entry give the natural chain unless they say otherwise; changes in a name come on top.
UniProt P18054: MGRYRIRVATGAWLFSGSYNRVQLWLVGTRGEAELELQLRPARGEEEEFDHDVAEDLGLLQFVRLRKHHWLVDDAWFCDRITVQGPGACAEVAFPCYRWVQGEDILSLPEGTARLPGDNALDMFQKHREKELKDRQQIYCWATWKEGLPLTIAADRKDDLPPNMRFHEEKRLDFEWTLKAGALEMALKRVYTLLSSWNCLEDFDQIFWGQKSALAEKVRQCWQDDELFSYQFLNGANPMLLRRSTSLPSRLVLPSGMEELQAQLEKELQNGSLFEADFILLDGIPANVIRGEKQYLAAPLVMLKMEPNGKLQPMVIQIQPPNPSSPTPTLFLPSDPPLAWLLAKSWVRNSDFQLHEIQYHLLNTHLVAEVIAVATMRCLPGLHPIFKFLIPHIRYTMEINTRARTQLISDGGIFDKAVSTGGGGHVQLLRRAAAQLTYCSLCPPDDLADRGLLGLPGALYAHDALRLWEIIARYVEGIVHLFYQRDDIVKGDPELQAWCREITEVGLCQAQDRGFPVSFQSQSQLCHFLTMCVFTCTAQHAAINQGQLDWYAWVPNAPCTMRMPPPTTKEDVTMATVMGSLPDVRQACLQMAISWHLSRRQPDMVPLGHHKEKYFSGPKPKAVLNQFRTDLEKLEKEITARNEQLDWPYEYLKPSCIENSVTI

biological target: Polyunsaturated fatty acid lipoxygenase ALOX12 (Homo sapiens) (UniProt P18054); assay: Primary qHTS assay for inhibitors of human arachidonate 12S-lipoxygenase (ALOX12): Round 2; conditions: purified 12hLO, xylenol orange hydroperoxide absorbance; activity change, negative = inhibition: at 108 µM (top of the series) unless noted
Outline: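 Hydroperoxide product was detected by ferrous iron/xylenol orange as the 573 to 405 nm absorbance ratio. Arachidonic acid at 40 uM (final) was turned over for 30 min at room temperature by 150 nM human 12hLO, pH 7.0 Hepes buffer, after 15 min compound preincubation.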
% is scaled to controls: 0 for no effect and ±100 for the full control effect; potency is read from the fitted curve at half-maximal effect.

Structure (SMILES)	activity change, negative = inhibition	Potency
COc1ccc(C(N)=O)c(OCc2coc(-c3ccccc3)n2)c1	inconclusive: -34.5% [inhibitor]	–
Cc1nc2ccccc2n1CC(=O)OCC(=O)NCCc1ccccc1	–	inconclusive: 141 µM [inhibitor, single point]
O=C(c1ccco1)N1CCCC(c2nc3c(nnn3Cc3c(Cl)cccc3Cl)c(=O)[nH]2)C1 (stereo unspecified)	–	inconclusive: 100 µM [inhibitor, partial curve, poor fit]
CC(=O)c1sc2nc(-c3ccccc3)cc(C)c2c1N	–	inconclusive: 35.5 µM [inhibitor, partial curve, poor fit]
CC(C)N1CCc2c(sc(NC(=O)c3ccco3)c2C(N)=O)C1	–	inconclusive: 44.7 µM [inhibitor, partial curve, poor fit]
CCOc1ccc(NC(=O)N2CC3CCCN3c3ccccc32)cc1 (stereo unspecified)	–	inconclusive: 158 µM [inhibitor, partial curve, poor fit]
COc1ccc(NC(=S)NCc2cccnc2)cc1OC	–	inconclusive: 112 µM [inhibitor, single point]
NC(=O)c1ccc(-n2nnnc2Oc2ccccc2C(=O)N2CCOCC2)cc1	inactive: 29%	–
COc1ccc2c(c1)C(n1ccc3ccccc31)C(=O)N2Cc1ccc(C(C)C)cc1 (stereo unspecified)	–	active: 14.1 µM
CCOc1ccc(S(=O)(=O)NCCSCc2ccco2)cc1	–	inconclusive: 39.8 µM [inhibitor, partial curve]
CC(=O)N1CCC[C@@]2(CCN(C(c3ccccc3)c3ccccc3)C2)C1	–	inconclusive: 31.6 µM [inhibitor, single point]
C=Cc1ccc(CN2C(=O)N(c3ccc(C)cc3)S(=O)(=O)c3ccccc32)cc1	–	inconclusive: 50.1 µM [inhibitor, partial curve]
COc1ccc(CNC(=O)CC2C[C@H](C(=O)N3CCOCC3)[C@@]3(CCC4CCCC4)c4[nH]c5ccccc5c4CCN3C2=O)cc1OC (stereo partly specified)	–	inconclusive: 89.1 µM [inhibitor, single point]
Cc1c(C(=O)N2C[C@@H](C(=O)O)C[C@H](C(=O)NC3CC3)C2)sc2ccccc12	inactive: -15.2%	–
CC(CCNC(=O)c1ccccc1)(CCNC(=O)c1ccccc1)[N+](=O)[O-]	–	inconclusive: 6.31 µM [inhibitor, full curve, poor fit]
CN1CCN(C(=O)[C@@H]2CCC[C@@H](NCc3cccc4c3OCO4)CN(C)C(=O)C2)CC1	–	inconclusive: 0.891 µM [inhibitor, full curve]
O=C(O)CSc1cc(C(=O)c2cc(F)ccc2O)cn2c(=O)c3c(-c4ccccc4)csc3nc12	–	inconclusive: 50.1 µM [inhibitor, partial curve, poor fit]
COc1ccc(NC(=S)N/N=C/c2cccn2Cc2ccc(F)cc2)cc1	–	inconclusive: 44.7 µM [inhibitor, partial curve]
Cn1cc(-c2cccc(CCOc3cnc4c(ccn4CC(=O)O)c3)c2)cn1	inactive: -7.34% [at 176 µM]	–
Cc1ccc(OCCOCCNC(C)(C)C)c([N+](=O)[O-])c1	–	inconclusive: 8.91 µM [inhibitor, full curve, poor fit]
O=C(Cc1ccccc1Cl)N1CCC(c2n[nH]c(=O)n2-c2ccccc2)CC1	–	inconclusive: 20 µM [inhibitor, full curve]

Structure (SMILES)	activity change, negative = inhibition	Potency
COC(=O)c1cnc(N2CCN(c3ccc(OC)cc3)CC2)c2ccccc12	–	inconclusive: 112 µM [inhibitor, single point]
CC(C)CCN1CCC2(C1)C(=NC1CCCC1)NC(=O)N2c1cccnc1 (stereo unspecified)	inactive: -10.3%	–
CNC[C@@H](Cc1ccccc1)NC[C@@H](CC1CCCCC1)NCCCc1ccccc1	–	inconclusive: 141 µM [inhibitor, partial curve, poor fit]
COc1ccc2nc3cc(Cl)ccc3c(Nc3ccc(O)c(CN4CCN(C)CC4)c3)c2c1	–	inconclusive: 28.2 µM [inhibitor, partial curve, poor fit]
COc1ccc(-c2cc(=O)oc3cc(OCC(C)=O)ccc23)cc1	inactive: 1.22%	–
CCN1CCN(C(c2ccccc2)c2c(O)cc(C)n(CC)c2=O)CC1 (stereo unspecified)	–	inconclusive: 100 µM [inhibitor, single point]
COc1ccc(CNC(=O)Cn2c(=O)n3nc(-c4ccc(OC)cc4)nc3c3ccccc32)cc1	–	inconclusive: 100 µM [inhibitor, partial curve, poor fit]
CSc1cccc(NC(=O)N[C@H]2C[C@@H](C(=O)N[C@H](Cc3c[nH]c4ccccc34)C(N)=O)N(C(=O)C=C(C)C)C2)c1	–	inconclusive: 17.8 µM [inhibitor, full curve]
CCN1CCN(c2ccc(Nc3cc(N(C)C(=O)Nc4c(Cl)c(OC)cc(OC)c4Cl)ncn3)cc2)CC1	inactive: -5.43% [at 57.4 µM]	–
O=C(NCCc1ccccn1)C1CC=CCC1 (stereo unspecified)	–	inconclusive: 22.4 µM [inhibitor, single point]
COc1cccc(NC(=O)CN(C)C(=O)c2cc3c(s2)CCCC3)c1	–	inconclusive: 79.4 µM [inhibitor, partial curve, poor fit]
CC(C)C(Sc1nc(-c2ccccc2)cc(-c2ccccc2)c1C#N)C(=O)O (stereo unspecified)	–	inconclusive: 50.1 µM [inhibitor, partial curve, poor fit]
Cc1ccc(CCC(=O)Nc2cnc3ccccc3c2)cc1	–	inconclusive: 89.1 µM [inhibitor, partial curve, poor fit]
CC(=O)c1cccc(NS(=O)(=O)c2ccc3[nH]c4c(c3c2)CCCCC4)c1	–	inconclusive: 89.1 µM [inhibitor, partial curve, poor fit]
CN(c1ccccc1C(=O)N1CCc2ccccc2C1)S(C)(=O)=O	–	inconclusive: 35.5 µM [inhibitor, partial curve, poor fit]
NC(=S)NNc1ccnc2cc(Cl)ccc12	–	active: 5.62 µM
CC(=O)Nc1ccc(S(=O)(=O)c2c(N)n(CCN3CCOCC3)c3nc4ccccc4nc23)cc1	–	inconclusive: 39.8 µM [inhibitor, single point]
CCOC(=O)C(=O)Nc1ccccc1OC	inactive: -0.931%	–
CCOC(=O)c1sc2nccc(N(C)C)c2c1N=CNOCc1c(F)cccc1Cl	–	inconclusive: 56.2 µM [inhibitor, single point]
COc1ccccc1N1CCN(C2CCN(C(=O)COc3ccccc3)CC2)CC1	–	inconclusive: 7.94 µM [inhibitor, full curve]
O=C(NC(=S)Nc1ccccc1)c1ccc(-c2ccccc2)cc1	inactive: -26.3%	–

An excerpt of these results, bar-delimited:
Structure (SMILES) | activity change, negative = inhibition | Potency
O=C(NCCc1ccccn1)C1CC=CCC1 (stereo unspecified) | – | inconclusive: 22.4 µM [inhibitor, single point]
COc1cccc(NC(=O)CN(C)C(=O)c2cc3c(s2)CCCC3)c1 | – | inconclusive: 79.4 µM [inhibitor, partial curve, poor fit]

The results go on:

Structure (SMILES)	activity change, negative = inhibition	Potency
CNC(=S)N/N=C/c1c2ccccc2c(Cl)c2ccccc12	–	inconclusive: 31.6 µM [inhibitor, partial curve, poor fit]
COc1ccc([C@H]2C[C@@H](O)[C@H](n3cc(-c4ccc(F)cc4)nn3)CN2CC2CCCCC2)cc1	–	inconclusive: 100 µM [inhibitor, single point]
Cc1ccc(Cl)cc1N(CC(=O)N1CCCC1)S(=O)(=O)c1ccccc1	–	inconclusive: 8.91 µM [inhibitor, full curve, poor fit]
CN(Cc1cccs1)[C@H]1CC[C@@]23CCCN2C(=O)CCC[C@H]3[C@H]1Cc1ccccc1	–	inconclusive: 89.1 µM [inhibitor, partial curve, poor fit]
C[C@@H](c1ccccc1)N1C[C@H](COCc2ccccc2)Oc2cc(N3CC[C@@H](O)C3)ccc2S1(=O)=O	–	inconclusive: 79.4 µM [inhibitor, single point]
COc1ccc2c(CC(=O)N[C@@H](Cc3ccccc3)C(=O)O)cc(=O)oc2c1C	–	inconclusive: 3.55 µM [inhibitor, full curve, poor fit]
Cc1ccc(-c2cnc3c(c2)C(=O)N([C@H](C)CO)C[C@@H](C)[C@@H](CN(C)C(=O)Cc2ccccc2)O3)cc1	–	inconclusive: 79.4 µM [inhibitor, partial curve, poor fit]
COc1cc(C2c3[nH]c4ccccc4c3CC3COC(=O)N32)cc(OC)c1O (stereo unspecified)	–	inconclusive: 50.1 µM [inhibitor, partial curve, poor fit]
Cc1ccc2sc(-c3ccccc3)nc2c1	inactive: -47.3%	–
CCOC(=O)C1C(=O)C=C(c2ccc(F)cc2)CC1c1ccc(C(C)C)cc1 (stereo unspecified)	–	inconclusive: 39.8 µM [inhibitor, partial curve, poor fit]
O=C(COc1ccc(Cl)cc1Cl)Nc1ccc(C(=O)Nc2ccccc2C(=O)O)cc1	–	inconclusive: 50.1 µM [inhibitor, partial curve, poor fit]
CCCOc1ccc(Cc2nn[nH]n2)cc1	–	inconclusive: 50.1 µM [inhibitor, single point]
CCN(Cc1ccccc1)C(=O)CSc1nc(C)cc(C)c1C#N	inactive: -12.4%	–
CCOc1ccc(OCC)c(NC(=O)Nc2ccc(F)cc2F)c1	inactive: 2.21%	–
N#C/C(=C/c1ccccc1OCC(=O)O)C(=O)Nc1ccc(N2CCOCC2)cc1	–	inconclusive: 44.7 µM [inhibitor, partial curve, poor fit]
O=S(=O)(Nc1ccc(OC(F)F)cc1)c1ccc(-c2ccon2)s1	–	inconclusive: 44.7 µM [inhibitor, partial curve, poor fit]
COc1ccc(-n2c(=O)cnc3cnc(Nc4ccccc4)nc32)cc1	inactive: 193%	–
NCCCC[C@H]1CNC(=O)C(=O)N1CCc1cccc2ccccc12	–	inconclusive: 89.1 µM [inhibitor, single point]
OC(Cc1ccccc1Br)c1ncc(-c2ccc(Cl)cc2)[nH]1 (stereo unspecified)	–	inconclusive: 56.2 µM [inhibitor, partial curve, poor fit]

Of the compounds above, three contain a cyano group:
Structure (SMILES)	activity change, negative = inhibition	Potency
CC(C)C(Sc1nc(-c2ccccc2)cc(-c2ccccc2)c1C#N)C(=O)O (stereo unspecified)	–	inconclusive: 50.1 µM [inhibitor, partial curve, poor fit]
CCN(Cc1ccccc1)C(=O)CSc1nc(C)cc(C)c1C#N	inactive: -12.4%	–
N#C/C(=C/c1ccccc1OCC(=O)O)C(=O)Nc1ccc(N2CCOCC2)cc1	–	inconclusive: 44.7 µM [inhibitor, partial curve, poor fit]
